# Source: US9198422B2, “Pesticidal pyrazole compounds” (BASF SE, priority 2011, dated 2015)
# Some entries share one result that the patent states for a list of compounds.
# Assays:
# [1] = system: Megoura viciae; assay: B.4 Vetch aphid bean leaf disk microtiter test; type: in vivo; details: 2500 ppm; 6 days
# Method: B.4 Vetch Aphid (Megoura viciae)
# The active compounds were formulated in 3:1 (vol:vol) water:DMSO with different concentrations of formulated compounds.
# Bean leaf disks were placed into microtiterplates filled with 0.8% agar-agar and 2.5 ppm OPUS™. The leaf disks were sprayed with 2.5 μl of the test solution and 5 to 8 adult aphids were placed into the microtiter plates which were then closed and kept at 23±1° C. and 50±5% relative humidity under fluorescent light for 6 days. Mortality was assessed on the basis of vital, reproduced aphids. Aphid mortality and fecundity was then visually assessed.
# [2] = system: Aphis craccivora; assay: B.1 Cowpea aphid spray test on potted cowpea plants; type: in vivo; details: 500 ppm; population reduction assessed after 24, 72 and 120 hours
# Method: If not otherwise specified the test solutions were prepared as follows:
# The active compound was dissolved at the desired concentration in a mixture of 1:1 (vol:vol) distilled water:aceton. The test solution was prepared at the day of use and in general at concentrations of ppm (wt/vol).
# B.1 Cowpea Aphid (Aphis craccivora)
# Potted cowpea plants colonized with 100-150 aphids of various stages were sprayed after the pest population had been recorded. Population reduction was assessed after 24, 72, and 120 hours.
SMILES,mortality in comparison with untreated controls [1],mortality in comparison with untreated controls [2]
CCOC(=O)C(C)n1ncc(C(=O)N(CC)c2cccnc2)c1C (stereo not shown) [I-311],at least 75%,at least 75%
CCOC(=O)C(C)C(C)n1ncc(C(=O)Nc2ccnnc2)c1C (mixture of isomers) [I-248],at least 75%,–
CCN(C(=O)c1cnn(C(C)C2CCOCC2)c1C)c1cccnc1 (racemic) [I-178],–,at least 75%
CCOC(=O)C(C)C(C)n1ncc(C(=O)N(C)c2ccnnc2)c1C (mixture of isomers) [I-246],at least 75%,at least 75%
CCOC(=O)C(C)n1ncc(C(=O)Nc2cccnc2)c1C (stereo not shown) [I-275],at least 75%,at least 75%
CNC(=O)C(C)n1ncc(C(=O)Nc2ccnnc2)c1C (stereo not shown) [I-257],–,at least 75%
CCC(CC)n1ncc(C(=O)N(C)c2cccnc2)c1C(F)(F)F [I-72],at least 75%,at least 75%
Cc1c(C(=O)N(C)c2cccnc2)cnn1C(C1CC1)C(F)(F)F (stereo not shown) [I-301],–,at least 75%
Cc1c(C(=O)Nc2cccnc2)cnn1C(C(C)C)C(C)C [I-227],at least 75%,–
Cc1c(C(=O)N(C)c2cccnc2)cnn1C1CSC1 [I-223],at least 75%,at least 75%
Cc1c(C(=O)Nc2ccnnc2)cnn1C(C(C)C)C(C)C [I-226],at least 75%,–
Cc1c(C(=O)N(C)c2cccnc2)cnn1C(C)c1ccccc1 (stereo not shown) [I-171],–,at least 75%
Cc1c(C(=O)Nc2ccnnc2)cnn1C(C)CC(C)C (stereo not shown) [I-264],–,at least 75%
CCN(C(=O)c1cnn(C(C)COc2ccccc2)c1C)c1cccnc1 (stereo not shown) [I-295],–,at least 75%
Cc1c(C(=O)N(C)c2cccnc2)cnn1C1(C(F)(F)F)CCCCC1 [I-123],at least 75%,at least 75%
CCOC(=O)CC(C)n1ncc(C(=O)N(C)c2cccnc2)c1C (stereo not shown) [I-272],at least 75%,at least 75%
CC(n1ncc(C(=O)Nc2ccnnc2)c1C(F)(F)F)C(C)(C)C (racemic) [I-56],–,at least 75%
Cc1c(C(=O)Nc2ccnnc2)cnn1C1C[S+]([O-])C1 (stereo not shown) [I-242],at least 75%,–
CCC(C(C)C)C(C)n1ncc(C(=O)N(C)c2ccnnc2)c1C (stereo not shown) [I-259],–,at least 75%
CCC(CC)n1ncc(C(=O)N(COC)c2ccnnc2)c1C(F)(F)F [I-54],at least 75%,at least 75%
Cc1c(C(=O)Nc2ccnnc2)cnn1C(C(C)C)C(F)(F)F (stereo not shown) [I-276],–,at least 75%
Cc1c(C(=O)Nc2ccnnc2)cnn1C1CSC1 [I-219],at least 75%,at least 75%
Cc1c(C(=O)Nc2cccnc2)cnn1C1CS(=O)(=O)C1 [I-215],–,at least 75%

SMILES,mortality in comparison with untreated controls [1],mortality in comparison with untreated controls [2]
CC(=O)N1CCC(n2ncc(C(=O)Nc3cccnc3)c2C)CC1 [I-289],at least 75%,at least 75%
Cc1c(C(=O)N(C)c2cccnc2)cnn1C(C)c1ccsc1 (stereo not shown) [I-286],–,at least 75%
Cc1c(C(=O)N(C)c2cccnc2)cnn1C(C)C1CS(=O)(=O)C1 (stereo not shown) [I-317],–,at least 75%
"CCN(C(=O)c1cnn(C(C)C(C)F)c1C)c1cccnc1 (single isomer, unassigned) [I-159]",at least 75%,at least 75%
CCN(C(=O)c1cnn(C2C[S+]([O-])C2)c1C)c1ccnnc1 (stereo not shown) [I-255],–,at least 75%
CCN(C(=O)c1cnn(C(C)c2ccsc2)c1C)c1cccnc1 (stereo not shown) [I-287],–,at least 75%
CCN(C(=O)c1cnn(C2CSC2)c1C)c1cccnc1 [I-224],at least 75%,at least 75%
CCC(CC)n1ncc(C(=O)Nc2cccnc2)c1C(F)(F)F [I-55],at least 75%,at least 75%
Cc1c(C(=O)N(C)c2cccnc2)cnn1C(C)C1CCOCC1 (racemic) [I-180],–,at least 75%
Cc1c(C(=O)Nc2cccnc2)cnn1C(C)c1ccncc1 (stereo not shown) [I-160],–,at least 75%
Cc1c(C(=O)Nc2cccnc2)cnn1C(C)C1CS(=O)(=O)C1 (stereo not shown) [I-316],–,at least 75%
Cc1c(C(=O)Nc2ccnnc2)cnn1C(C)Cc1ccc(Cl)nc1 (stereo not shown) [I-220],at least 75%,at least 75%
CCN(C(=O)c1cnn(C(C(C)C)C(C)C)c1C)c1ccnnc1 [I-234],at least 75%,–
Cc1c(C(=O)Nc2ccnnc2)cnn1C1CC1(Cl)Cl (stereo not shown) [I-65],at least 75%,at least 75%
CCN(C(=O)c1cnn(C(C)C2CS(=O)(=O)C2)c1C)c1ccnnc1 (stereo not shown) [I-315],–,at least 75%
CC(n1ncc(C(=O)Nc2cccnc2)c1C(F)(F)F)C(C)(C)C (racemic) [I-59],at least 75%,at least 75%
Cc1c(C(=O)N(C)c2ccnnc2)cnn1C(C)C1CS(=O)(=O)C1 (stereo not shown) [I-314],–,at least 75%
Cc1c(C(=O)N(C)c2ccnnc2)cnn1C(C)c1ccsc1 (stereo not shown) [I-283],–,at least 75%
CCC(C(C)C)C(C)n1ncc(C(=O)N(CC)c2cccnc2)c1C (stereo not shown) [I-263],–,at least 75%
Cc1c(C(=O)N(C)c2cccnc2)cnn1C(C(C)C)C(C)C [I-228],at least 75%,–
Cc1c(C(=O)Nc2cccnc2)cnn1C(C)c1ccsc1 (stereo not shown) [I-285],–,at least 75%
CCN(C(=O)c1cnn(C(C)CC(C)C)c1C)c1cccnc1 (stereo not shown) [I-269],–,at least 75%
CCC(C(C)C)C(C)n1ncc(C(=O)N(C)c2cccnc2)c1C (stereo not shown) [I-262],–,at least 75%

SMILES,mortality in comparison with untreated controls [1],mortality in comparison with untreated controls [2]
CCN(C(=O)c1cnn(C2CS(=O)(=O)C2)c1C)c1ccnnc1 [I-214],–,at least 75%
Cc1c(C(=O)Nc2cccnc2)cnn1C(C)CC(C)C (stereo not shown) [I-267],–,at least 75%
CCC(CC)n1ncc(C(=O)N(COC)c2ccnnc2)c1C [I-49],at least 75%,–
Cc1c(C(=O)N(C)c2ccnnc2)cnn1C(C(C)C)C(C)C [I-225],at least 75%,–
Cc1c(C(=O)N(C)c2ccnnc2)cnn1C(C)C1(C)OCCS1 (stereo not shown) [I-237],–,at least 75%
CCN(C(=O)c1cnn(C(C(C)C)C(C)C)c1C)c1cccnc1 [I-229],at least 75%,–
CCN(C(=O)c1cnn(C2CSC2)c1C)c1ccnnc1 [I-235],–,at least 75%
Cc1c(C(=O)N(C)c2ccnnc2)cnn1C(C)C1(F)CC1 (racemic) [I-40],–,at least 75%
Cc1c(C(=O)N(C)c2cccnc2)cnn1C(C)COc1ccccc1 (stereo not shown) [I-294],–,at least 75%
Cc1c(C(=O)N(C)c2cccnc2)cnn1C1(C(F)(F)F)CCOCC1.O=C(O)C(F)(F)F [I-165],at least 75%,–
CCC(C(C)C)C(C)n1ncc(C(=O)Nc2ccnnc2)c1C (stereo not shown) [I-258],–,at least 75%
Cc1c(C(=O)N(C)c2cccnc2)cnn1C(C)CC(C)C (stereo not shown) [I-268],–,at least 75%
Cc1c(C(=O)Nc2cccnc2)cnn1C(C)COc1ccccc1 (stereo not shown) [I-296],–,at least 75%
Cc1c(C(=O)Nc2cccnc2)cnn1C(C)C1(C)OCCS1 (stereo not shown) [I-239],–,at least 75%
Cc1c(C(=O)Nc2ccnnc2)cnn1C(C)C1CS(=O)(=O)C1 (stereo not shown) [I-313],–,at least 75%
Cc1c(C(=O)Nc2ccnnc2)cnn1C(C)C1(C)OCCS1 (stereo not shown) [I-236],–,at least 75%
Cc1c(C(=O)Nc2ccnnc2)cnn1C(C)C1CCOCC1 (racemic) [I-175],–,at least 75%
CCN(C(=O)c1cnn(C(C)c2ccccc2)c1C)c1cccnc1 (stereo not shown) [I-172],–,at least 75%
Cc1c(C(=O)Nc2ccnnc2)cnn1C1CS(=O)(=O)C1 [I-216],–,at least 75%
CCC(C(C)C)C(C)n1ncc(C(=O)Nc2cccnc2)c1C (stereo not shown) [I-261],–,at least 75%
CCN(C(=O)c1cnn(C(C)C2(C)OCCS2)c1C)c1cccnc1 (stereo not shown) [I-241],–,at least 75%
Cc1c(C(=O)Nc2cccnc2)cnn1C(C)C1CCOCC1 (racemic) [I-179],–,at least 75%
Cc1c(C(=O)N(C)c2cccnc2)cnn1C(C)C1(C)OCCS1 (stereo not shown) [I-240],–,at least 75%
